In patent publication US12618044B2, “Specification of functional cranial placode derivatives from human pluripotent stem cells” (MEMORIAL SLOAN-KETTERING CANCER CENTER, priority 2013, dated 2026):
For part of these data: For at least one compound, name, drawing or mass did not settle the structure. Some entries share one result that the patent states for a list of compounds.

Tests used:
Type in all cases: cell-based, human
SIX1::GFP cells = assay: PIP-E6 pituitary induction and hormone release; conditions: hormone expressing cells
Experimental: Induction of anterior pituitary gland cells: Pituitary placode cells were induced by culturing SIX1::GFP cells according to the PIP-E6 protocol, wherein pituitary factors SHH, FGF8, FGF10 and/or hypothalamus CM were supplemented in the culture media from days 6-15.
Induction of anterior pituitary gland cells: SIX1::GFP hPSCs were cultured according to a modified PIP-E6 protocol, wherein pituitary factors such as FGF8, FGF10 or SHH, etc., were included in the culture media from days 6-14. Cells were sorted based on expression of SIX1::GFP, and were replated at a concentration of 10,000 cells/cm^2 on PO/L/F, and were incubated with small molecule/growth factors for 2 weeks. (FIG. 68). […] (FIG. 69).

hESC = assay: Neural induction of hESC by dual SMAD inhibition (PAX6 expression); conditions: hESC in KSR, differentiated for a total of 11 days
Experimental: In one embodiment, the present invention contemplates a method establishing an even cell distribution for inducing homogenous neural differentiation of hESCs. To this end, undifferentiated hESC were dissociated into single cells and re-plated onto Matrigel coated dishes in conditioned medium supplement with ROCK inhibitor, Y-27632 (Wananabe et al., 2007). After 72 hours, cells were switched from hESC conditions to knock-out serum replacement medium (KSR) containing either Noggin, SB4315242, or both factors and allowed to differentiate for a total of 11 days (FIG. 1A). […] Neural induction was monitored by expression of PAX6, an early marker of neuroectodermal differentiation (Callaerts, et al., Annu Rev Neurosci 20:483 (1997).
hESC cultures were disaggregated using accutase for 20 minutes, washed using hESC media and pre-plated on gelatin for 1 hour at 37° C. in the presence of ROCK inhibitor to remove MEFs. The nonadherent hESC were washed and plated on matrigel at a density of 10,000-25,000 cells/cm^2 on matrigel (BD) coated dishes in MEF conditioned hESC media (CM) spiked with 10 ng/mL of FGF-2 and ROCK-inhibitor. […] The ROCK inhibitor was withdrawn, and hESC were allowed to expand in CM for 3 days or until they were nearly confluent. […]

hESC derived FP = assay: A/P respecification of hESC derived FP by caudalizing factors; conditions: in combination with SHH
Experimental: For MS5 induction, established methods previously reported were used (Perrier et al., 2004). Feeder free neural induction was carried out as previously described (Chambers et al., 2009). Briefly, hESCs cultures were disaggregated using accutase for 20 minutes, washed using hESCs media and pre-plated on gelatin for 1 hour at 37° C. in the presence of ROCK inhibitor to remove MEFs. The nonadherent hESCs were washed and plated on matrigel at a density of 20,000 cells/cm2 on matrigel (BD) coated dishes in MEF conditioned hESCs media (CM) spiked with 10 ng/mL of FGF-2 and ROCK-inhibitor. The ROCK inhibitor was withdrawn, and hESCs were allowed to expand in CM for 3 days or until they were nearly confluent. The initial differentiation media conditions included knock out serum replacement (KSR) media with […] TGF-b inhibitor (SB431542, Tocris) and 500 ng/mL of Noggin (R&D). Upon day 5 of differentiation, increasing amounts of N2 media (25%, 50%, 75%) was added to the KSR media every two days while maintaining 500 ng/mL of Noggin and TGF-b inhibitor. For FP induction, Sonic C25II was added at 200 ng/ml. In some experiments, DKK-1 (R&D 100 ng/ml) FGF8 (R&D 50 ng/ml), Wnt-1 (Peprotech 50 ng/ml) and Retinoic Acid (R&D 1 uM) were added.
The inventors contemplated the use of SIX6 as a putative marker of anterior FP identity. Thus SIX6 status of the hESC derived FP was used to mark respecification in response to known caudalizing agents such as FGF8, Wnt-1, and Retinoic Acid. Each of these caudalizing factors was added in combination with SHH and the resulting tissue was assessed for expression of the FP markers FOXA2 and NETRIN-1, the AN marker BF1, and putative anterior FP marker SIX6. FP generation was found not compromised in the presence of caudalizing factors.
The inventors discovered that different factors had varied effects on marker expression (FIG. 20C).
As mentioned above, studies had identified different enhancers that directed SHH expression to different A/P region along ventral axis (Jeong et al., 2008). […]

Compound: CC(C)C[C@H](NC(=O)[C@@H](Cc1ccc2ccccc2c1)NC(=O)[C@H](Cc1ccc(O)cc1)NC(=O)[C@H](CO)NC(=O)[C@H](Cc1c[nH]c2ccccc12)NC(=O)[C@H](Cc1c[nH]cn1)NC(=O)[C@@H]1CCC(=O)N1)C(=O)N[C@@H](CCCNC(=N)N)C(=O)N1CCC[C@H]1C(=O)NCC(N)=O [nafarelin]
- follicle stimulating hormone (FSH) release (SIX1::GFP cells): released follicle stimulating hormone (FSH)

Compound: Noggin
- efficiency of neural induction, PAX6+ cells of total cells (hESC): less than 10%

Compound: CC1=C(/C=C/C(C)=C/C=C/C(C)=C/C(=O)O)C(C)(C)CCC1 [Retinoic Acid, reference compound]
- BF1 expression (hESC derived FP): dramatic reduction
- FP production based on FOXA2 and Netrin-1 expression (hESC derived FP): significantly potentiated
- SIX6 expression (hESC derived FP): significant reduction

Compound: NC(=O)c1ccc(-c2nc(-c3ccc4c(c3)OCO4)c(-c3ccccn3)[nH]2)cc1 [SB431542, 4-[4-(1,3-benzodioxol-5-yl)-5-(2-pyridinyl)-1H-imidazol-2-yl]-benzamide]
- efficiency of neural induction, PAX6+ cells of total cells (hESC): less than 10%
